Seven molecules from article PMC11704005 can be followed below.

By UniProt entry, the sequences of proteins in these tests, tags left out. Residues count along the entry.
UniProt O15118, residues 23-1278: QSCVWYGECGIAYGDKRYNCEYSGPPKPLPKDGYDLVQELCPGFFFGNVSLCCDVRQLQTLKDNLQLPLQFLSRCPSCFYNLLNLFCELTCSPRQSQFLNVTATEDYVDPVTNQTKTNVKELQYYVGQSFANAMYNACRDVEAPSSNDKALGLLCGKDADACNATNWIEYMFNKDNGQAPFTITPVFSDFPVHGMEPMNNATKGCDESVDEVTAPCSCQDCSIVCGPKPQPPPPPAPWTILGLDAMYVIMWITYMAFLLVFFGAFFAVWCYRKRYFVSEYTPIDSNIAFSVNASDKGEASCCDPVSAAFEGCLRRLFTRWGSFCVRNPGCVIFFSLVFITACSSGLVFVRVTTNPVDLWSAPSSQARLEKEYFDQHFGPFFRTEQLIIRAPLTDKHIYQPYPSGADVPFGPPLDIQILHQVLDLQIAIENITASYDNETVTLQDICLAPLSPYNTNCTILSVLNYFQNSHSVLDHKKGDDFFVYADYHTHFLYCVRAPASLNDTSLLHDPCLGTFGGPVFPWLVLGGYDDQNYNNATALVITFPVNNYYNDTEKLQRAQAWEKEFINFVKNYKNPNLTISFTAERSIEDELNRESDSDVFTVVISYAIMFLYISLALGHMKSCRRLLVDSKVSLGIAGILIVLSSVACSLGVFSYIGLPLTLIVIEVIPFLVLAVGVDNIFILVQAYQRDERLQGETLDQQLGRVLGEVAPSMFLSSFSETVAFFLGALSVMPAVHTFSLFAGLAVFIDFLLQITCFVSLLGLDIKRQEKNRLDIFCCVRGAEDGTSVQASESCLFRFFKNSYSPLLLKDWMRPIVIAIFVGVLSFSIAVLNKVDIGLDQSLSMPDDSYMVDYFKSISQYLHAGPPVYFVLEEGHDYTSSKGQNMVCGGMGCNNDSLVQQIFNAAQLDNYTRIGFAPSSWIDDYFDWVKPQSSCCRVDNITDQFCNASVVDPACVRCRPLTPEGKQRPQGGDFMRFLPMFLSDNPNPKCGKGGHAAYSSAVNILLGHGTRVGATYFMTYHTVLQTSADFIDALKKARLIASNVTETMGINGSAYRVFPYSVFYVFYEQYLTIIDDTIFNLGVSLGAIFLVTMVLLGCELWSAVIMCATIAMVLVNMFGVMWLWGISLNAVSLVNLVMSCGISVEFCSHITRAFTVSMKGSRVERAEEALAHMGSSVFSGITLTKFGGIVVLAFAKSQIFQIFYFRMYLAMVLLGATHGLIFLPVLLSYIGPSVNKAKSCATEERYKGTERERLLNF
UniProt O15105: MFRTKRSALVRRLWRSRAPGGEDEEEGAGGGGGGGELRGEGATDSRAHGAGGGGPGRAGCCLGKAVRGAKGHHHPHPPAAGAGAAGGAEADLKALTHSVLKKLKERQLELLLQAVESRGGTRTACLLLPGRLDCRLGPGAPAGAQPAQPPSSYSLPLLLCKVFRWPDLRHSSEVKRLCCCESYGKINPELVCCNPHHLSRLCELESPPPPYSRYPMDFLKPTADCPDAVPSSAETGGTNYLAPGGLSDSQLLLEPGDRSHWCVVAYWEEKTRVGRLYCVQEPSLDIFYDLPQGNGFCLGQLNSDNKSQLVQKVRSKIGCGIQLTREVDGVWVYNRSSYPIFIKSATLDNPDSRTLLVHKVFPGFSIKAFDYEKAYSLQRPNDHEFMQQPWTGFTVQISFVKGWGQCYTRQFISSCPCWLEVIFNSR
UniProt Q9HCE7: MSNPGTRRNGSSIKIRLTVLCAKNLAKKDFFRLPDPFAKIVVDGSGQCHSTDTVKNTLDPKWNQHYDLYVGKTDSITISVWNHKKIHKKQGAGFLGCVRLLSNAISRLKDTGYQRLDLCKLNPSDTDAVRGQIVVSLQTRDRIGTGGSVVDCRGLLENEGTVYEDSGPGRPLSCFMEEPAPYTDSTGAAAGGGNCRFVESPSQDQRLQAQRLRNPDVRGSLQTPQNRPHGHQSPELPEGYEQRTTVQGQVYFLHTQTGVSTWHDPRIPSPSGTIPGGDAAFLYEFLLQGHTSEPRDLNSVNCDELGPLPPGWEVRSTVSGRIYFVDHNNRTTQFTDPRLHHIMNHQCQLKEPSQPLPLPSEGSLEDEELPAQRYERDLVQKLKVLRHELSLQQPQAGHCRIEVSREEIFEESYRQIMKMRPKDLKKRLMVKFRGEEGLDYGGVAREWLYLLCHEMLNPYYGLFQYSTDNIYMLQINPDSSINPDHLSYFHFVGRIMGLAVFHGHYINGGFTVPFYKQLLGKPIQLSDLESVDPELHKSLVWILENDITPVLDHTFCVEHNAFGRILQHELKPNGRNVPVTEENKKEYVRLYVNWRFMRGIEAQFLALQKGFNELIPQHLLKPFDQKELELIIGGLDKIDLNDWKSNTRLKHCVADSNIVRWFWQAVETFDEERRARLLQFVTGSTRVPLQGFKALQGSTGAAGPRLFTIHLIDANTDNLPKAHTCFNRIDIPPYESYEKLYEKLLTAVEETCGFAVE

Results are given in words; binding and its absence hold for the method and conditions named. In cells and extracts the contact can be indirect. Some results given as binding are weak or reduced against the parent protein; the word gives no strength. For some of these results: Tags and fused reporters may be left off the sequences shown.

One test deals with T1, TGFBR1-Myc (UniProt P36897).
T1 sequence: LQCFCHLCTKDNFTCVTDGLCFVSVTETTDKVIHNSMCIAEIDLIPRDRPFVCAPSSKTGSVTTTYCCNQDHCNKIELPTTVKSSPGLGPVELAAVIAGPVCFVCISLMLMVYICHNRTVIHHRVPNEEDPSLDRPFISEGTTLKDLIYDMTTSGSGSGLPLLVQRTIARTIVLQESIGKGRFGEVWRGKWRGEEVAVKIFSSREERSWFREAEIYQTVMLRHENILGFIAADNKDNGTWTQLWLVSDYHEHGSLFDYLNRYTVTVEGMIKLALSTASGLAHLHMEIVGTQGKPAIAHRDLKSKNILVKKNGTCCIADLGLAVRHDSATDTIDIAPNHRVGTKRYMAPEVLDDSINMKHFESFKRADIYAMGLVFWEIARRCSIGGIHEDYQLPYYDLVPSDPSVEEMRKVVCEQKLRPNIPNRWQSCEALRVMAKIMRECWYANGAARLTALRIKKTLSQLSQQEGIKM
Briefly: co-IP; PLC/PRF/5 transfected with NPC1-His-Flag and TGFBR1-Myc or TGFBR1 deletion mutants; anti-Myc magnetic beads, immunoblot with Flag or Myc antibody. In general terms: A western blot detects proteins with antibodies after separation by electrophoresis.

Another test deals with T2, TGFBR1-mCherry-His (UniProt P36897).
T2 sequence: T1 sequence
Nature of the test: co-IP; TGFBR1-mCherry-His stably overexpressed in PLC/PRF/5 (with or without NPC1 overexpression) and HepG2 (with or without NPC1 knockdown); immunoprecipitation with anti-His antibody; lysates and immunoprecipitates blotted.

Test [1] has as its target ectopic NPC1 (Niemann-Pick disease type C protein 1), tagged construct of Fig. 5a and Supplementary Fig. 6a (UniProt O15118). Nature of the test: co-IP; lysates (NP-40 IP buffer) of transfected PLC/PRF/5 (Fig. 5a) and HEK-293T (Supplementary Fig. 6a) cells; immunoprecipitation with anti-Flag (or GFP) antibody, immunoblot with anti-GFP (or Flag) antibody; 4 °C.
The target in the next test is NPC1-His-Flag (UniProt O15118). Nature of the test: co-IP; PLC/PRF/5 stably overexpressing TGFBR1-mCherry-His, transfected with NPC1-His-Flag or NPC1 deletion mutants; anti-Flag magnetic beads, immunoblot with mCherry or Flag antibody.
For test [2], the target named is endogenous NPC1 (human (endogenous in PLC/PRF/5 and HepG2)) (UniProt O15118). Nature of the test: co-IP; endogenous proteins; PLC/PRF/5 and HepG2 lysates immunoprecipitated with control IgG or anti-NPC1 antibodies; NP-40 IP buffer, 4 °C.

For “NPC1-His-Flag (from UniProt O15118 23-1278)”, in the test with TGFBR1-Myc, the binding entry is given as “binds”.

Turning to SMAD7 (from UniProt O15105 1-426), the binding entry with TGFBR1-mCherry-His is “binds”. The same measure, in the same setting: the value for “NPC1-HA (stably overexpressed NPC1) (from UniProt O15118 23-1278)” was “binds”. Consider “SMURF1 (from UniProt Q9HCE7 1-757) (enzyme)”, for which the binding result with TGFBR1-mCherry-His is recorded as “binds”.

B1: ectopic TGFBR1 (TGF-β receptor type-1), tagged construct of Fig. 5a and Supplementary Fig. 6a (receptor, UniProt P36897 34-503)
chain: T1 sequence
Regarding B1, the binding entry in test [1] is “binds”.

B2: TGFBR1-mCherry-His (receptor, UniProt P36897 34-503)
chain: T1 sequence
Consider B2, for which, in the test with NPC1-His-Flag, the binding entry was “binds”.

B3: endogenous TGFBR1 (receptor, UniProt P36897 34-503)
chain: T1 sequence
As for B3, the binding result in test [2] is on record as “binds”.
